Measurements reported in patent publication US6965021B2, “Feedback-resistant pyruvate carboxylase gene from corynebacterium” (Archer-Daniels-Midland Company, priority 2000, dated 2005).
At least one structure is not confirmed: it was looked up by name or label, or the drawing left a doubt.

Assays:
[1] = tested on: pyruvate carboxylase from NRRL B-11474; assay: Effect of aspartate, ATP and acetyl-CoA on pyruvate carboxylase activity, strain NRRL B-11474; type: biochemical, Corynebacterium glutamicum
Experimental: (§1) Pyruvate carboxylate and phosphoenol pyruvate carboxylate assays were performed with permeabilized cells prepared by the following method. Log phase cells were harvested by centrifugation for 10 min at 5000×g at 4° C. and washed with 20 ml of the ice-cold washing buffer (50 mM Tris/HCl [pH 6.3] containing 50 mM NaCl). The cell pellet was resuspended in an ice-cold Hepes buffer (100 mM Hepes [pH 7.5] containing 20% Glycerol) to reach a final concentration of 25 g dry cell weight/liter. Resuspended cells were permeabilized by adding 30 μl of a 10% Hexadecyltrimethyl-ammonium bromide (CTAB) (w/v) solution to 1 ml of cells to give a final concentration of 0.3% (CTAB)(v/v).
For determination of pyruvate carboxylate activity, the assay mixture contained 10 mM pyruvic acid, 14 mM KHCO3, 4 mM MgCl2, 1.75 mM ATP, 50 μmole acetyl-CoA, 0.3 mg bovine serum albumin, 0.055 U citrate synthase and 50 mM sodium phosphate buffer ([pH 7.5] containing 0.1 mg 5,5′-Dithio-bis(2-nitrobenzoic acid) (DTNB)) in a final volume of 1 ml. The reaction was started at 30° C. with the addition of 10 μl of the permeabilized cell suspension, and the formation of DTNB-thiophenolate was followed over time at 412 nm. Relevant standards and controls were carried out in the same manner.
Pyruvate carboxylase activity was determined as a function of various concentrations of its substrates: pyruvate, bicarbonate and ATP (FIG. 3). Based on the data generated, the affinity constants of pyruvate carboxylase for its substrates were determined (Table 2). […] Pyruvate carboxylase activity in both strains were inhibited by ATP above a concentration of 2 mM.
Aspartate inhibits phosphoenol pyruvate carboxylase (PEPC) activity. To determine the effect of aspartate on the activity of pyruvate carboxylase, aspartate was added at different concentrations in the spectrophotometer cuvette and enzyme activities were measured. As a comparison, the same experiment was carried out with PEPC in ATCC 21253 (FIG. 5).
Pyruvate carboxylase activity was measured in the presence of different concentrations of acetyl-CoA (FIG. 6). Pyruvate carboxylase activity in both strains increased with increasing acetyl-CoA concentrations. The effect of acetyl-CoA on citrate synthase itself was studied also. […] Therefore, the increasing activity of pyruvate carboxylase with increasing acetyl-CoA concentration is the result of acetyl-CoA activating pyruvate carboxylase.

[2] = tested on: pyruvate carboxylase from ATCC 21253; assay: Effect of aspartate, ATP and acetyl-CoA on pyruvate carboxylase activity, strain ATCC 21253; type: biochemical, Corynebacterium glutamicum
Experimental: as §1, with “(CTAB)(v/v). […]” for “(CTAB)(v/v).”
Pyruvate carboxylase activity was determined as a function of various concentrations of its substrates: pyruvate, bicarbonate and ATP (FIG. 3). Based on the data generated, the affinity constants of pyruvate carboxylase for its substrates were determined (Table 2). […]
Aspartate inhibits phosphoenol pyruvate carboxylase (PEPC) activity. To determine the effect of aspartate on the activity of pyruvate carboxylase, aspartate was added at different concentrations in the spectrophotometer cuvette and enzyme activities were measured. […]
Pyruvate carboxylase activity was measured in the presence of different concentrations of acetyl-CoA (FIG. 6). […]

Question: What does the source list for N[C@@H](CC(=O)O)C(=O)O [aspartate]?
Answer: aspartate concentration range in which the enzyme is inhibited [1]: 30 to 100 mM; retained original activity ([1]; 100 mM aspartate): 50%; activity maintained ([1]; 500 mM aspartate): 30%; aspartate concentration range in which the enzyme is activated ([1]; low aspartate concentrations): 0 to 30 mM; retained original activity ([2]; 25 mM aspartate): 35%; lost original activity ([2]; 30 mM aspartate): 70%
